Assay results reported in doi:10.1101/2024.03.04.583404.
No constants are given. Whether binding was seen depends on the method and setting. Binding seen in cells or lysates may run through a third protein. A result given as binding can be weak or reduced; the word gives no strength.

Amino acid sequences for entries named in this document (tags omitted). A change or cut given only in a name is not applied to a line headed by its entry.
UniProt Q21740: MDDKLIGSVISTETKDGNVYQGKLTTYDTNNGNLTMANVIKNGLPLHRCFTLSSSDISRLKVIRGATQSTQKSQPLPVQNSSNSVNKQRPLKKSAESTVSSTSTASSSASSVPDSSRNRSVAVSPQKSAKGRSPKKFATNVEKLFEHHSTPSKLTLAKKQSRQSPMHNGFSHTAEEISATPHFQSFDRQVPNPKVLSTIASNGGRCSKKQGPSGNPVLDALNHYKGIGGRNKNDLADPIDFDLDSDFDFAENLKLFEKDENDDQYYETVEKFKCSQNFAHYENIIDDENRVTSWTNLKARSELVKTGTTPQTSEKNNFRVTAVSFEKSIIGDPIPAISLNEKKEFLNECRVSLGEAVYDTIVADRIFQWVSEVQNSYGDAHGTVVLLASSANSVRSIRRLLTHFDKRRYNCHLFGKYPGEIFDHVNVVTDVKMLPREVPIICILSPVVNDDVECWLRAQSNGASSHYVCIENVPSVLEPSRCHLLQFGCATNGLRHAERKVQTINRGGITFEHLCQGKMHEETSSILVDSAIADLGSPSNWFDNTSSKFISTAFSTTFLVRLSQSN

Target: T1, DCAP-2::3XHA (C. elegans (endogenous in embryos and larvae)) (UniProt O62255)
T1 sequence: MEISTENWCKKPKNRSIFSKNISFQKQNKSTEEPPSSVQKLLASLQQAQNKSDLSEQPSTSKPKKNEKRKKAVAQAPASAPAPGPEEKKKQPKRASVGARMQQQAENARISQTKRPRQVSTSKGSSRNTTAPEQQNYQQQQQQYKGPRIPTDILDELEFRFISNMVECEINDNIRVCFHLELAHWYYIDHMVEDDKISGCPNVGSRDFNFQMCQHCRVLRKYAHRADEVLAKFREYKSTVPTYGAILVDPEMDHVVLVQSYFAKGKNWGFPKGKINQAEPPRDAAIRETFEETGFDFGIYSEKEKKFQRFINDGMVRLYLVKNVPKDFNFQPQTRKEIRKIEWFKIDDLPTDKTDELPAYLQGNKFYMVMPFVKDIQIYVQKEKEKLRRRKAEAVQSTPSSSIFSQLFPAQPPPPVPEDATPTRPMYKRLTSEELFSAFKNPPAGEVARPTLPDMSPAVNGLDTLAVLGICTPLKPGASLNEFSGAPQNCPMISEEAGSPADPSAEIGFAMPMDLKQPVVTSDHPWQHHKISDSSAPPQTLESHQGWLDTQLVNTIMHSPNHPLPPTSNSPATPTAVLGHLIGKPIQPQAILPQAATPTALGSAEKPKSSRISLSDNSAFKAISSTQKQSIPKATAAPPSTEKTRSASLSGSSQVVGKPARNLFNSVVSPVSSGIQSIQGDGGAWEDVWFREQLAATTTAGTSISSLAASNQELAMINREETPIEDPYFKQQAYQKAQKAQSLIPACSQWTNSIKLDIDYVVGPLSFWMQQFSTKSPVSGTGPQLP
Test: co-IP

EDC-3 (from UniProt Q21740)
binding: binds
